In this assay the target is Fused in Sarcoma (FUS) RNA-recognition motif, FUS-RRM (aa 282-376) (UniProt P35637). Put plainly: SEC-MALS. In general terms: In gel filtration, larger molecules generally elute earlier.

By UniProt entry, the sequences of proteins in these tests, tags left out. Residues count along the entry.
UniProt P35637, residues 282-376: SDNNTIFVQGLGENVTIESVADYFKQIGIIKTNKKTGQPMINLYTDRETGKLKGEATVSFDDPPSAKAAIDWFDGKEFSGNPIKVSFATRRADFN

Results are given in words; binding and its absence hold for the method and conditions named.

Regarding “Fused in Sarcoma (FUS) RNA-recognition motif, FUS-RRM (aa 282-376) (from UniProt P35637 282-376) (domain or fragment)”, the binding result is on record as “no binding (tested: 1mg/ml)”.

Values taken from doi:10.1101/2025.03.28.646059.
